{"source": "PubChem BioAssay AID1159584 (Peter MacCallum Cancer Centre, 2016)", "assay": "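Genes whose loss is lethal only together with E-cadherin loss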 (primary screen)", "system": "human MCF10A breast epithelial cells, parental and CDH1-null", "reagents": "siRNA against human genes", "detection": "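Cell viability by CellTiter-Glo ATP luminescence, each line scaled to the mean of mock wells across plates, then CDH1-null over parental ratio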", "direction": "CDH1-null / parental viability ratio: higher = CDH1-null cells survive relatively better than parental; CDH1-null viability vs mock: higher = more viable CDH1-null cells", "units": "CDH1-null viability vs mock in fraction of mock", "note": "Here is a random part of about 18,000 reagents. Not all columns of the deposit are shown. Not stated in the record: the amount of reagent, the time to read-out."}
{"Target gene": "NARS2 (GeneID 79731)", "CDH1-null / parental viability ratio": 0.96, "CDH1-null viability vs mock": 0.88}
{"Target gene": "JADE3 (GeneID 9767)", "CDH1-null / parental viability ratio": 0.91, "CDH1-null viability vs mock": 0.98}
{"Target gene": "LRPPRC (GeneID 10128)", "CDH1-null / parental viability ratio": 0.88, "CDH1-null viability vs mock": 0.65}
{"Target gene": "KMT5B (GeneID 51111)", "CDH1-null / parental viability ratio": 1.04, "CDH1-null viability vs mock": 1}
{"Target gene": "MPO (GeneID 4353)", "CDH1-null / parental viability ratio": 0.79, "CDH1-null viability vs mock": 0.68}
{"Target gene": "LIPI (GeneID 149998)", "CDH1-null / parental viability ratio": 1.05, "CDH1-null viability vs mock": 1.04}
{"Target gene": "OR52K1 (GeneID 390036)", "CDH1-null / parental viability ratio": 1.06, "CDH1-null viability vs mock": 0.92}
{"Target gene": "PCIF1 (GeneID 63935)", "CDH1-null / parental viability ratio": 0.76, "CDH1-null viability vs mock": 0.71}
{"Target gene": "FGF9 (GeneID 2254)", "CDH1-null / parental viability ratio": 0.82, "CDH1-null viability vs mock": 0.59}
{"Target gene": "LHFPL6 (GeneID 10186)", "CDH1-null / parental viability ratio": 1.12, "CDH1-null viability vs mock": 0.72}
{"Target gene": "SEC61A1 (GeneID 29927)", "CDH1-null / parental viability ratio": 0.84, "CDH1-null viability vs mock": 0.43}
{"Target gene": "TEX30 (GeneID 93081)", "CDH1-null / parental viability ratio": 0.78, "CDH1-null viability vs mock": 0.57}

The list goes on; the last 2 above are carried over.
{"Target gene": "SEC61A1 (GeneID 29927)", "CDH1-null / parental viability ratio": 0.84, "CDH1-null viability vs mock": 0.43}
{"Target gene": "TEX30 (GeneID 93081)", "CDH1-null / parental viability ratio": 0.78, "CDH1-null viability vs mock": 0.57}
{"Target gene": "BRICD5 (GeneID 283870)", "CDH1-null / parental viability ratio": 0.98, "CDH1-null viability vs mock": 0.9}
{"Target gene": "C12orf76 (GeneID 400073)", "CDH1-null / parental viability ratio": 1.3, "CDH1-null viability vs mock": 0.6}
{"Target gene": "OSBPL10 (GeneID 114884)", "CDH1-null / parental viability ratio": 1.17, "CDH1-null viability vs mock": 1.02}
{"Target gene": "AHCTF1 (GeneID 25909)", "CDH1-null / parental viability ratio": 0.92, "CDH1-null viability vs mock": 0.46}
{"Target gene": "SPDYE3 (GeneID 441272)", "CDH1-null / parental viability ratio": 1.01, "CDH1-null viability vs mock": 0.74}
{"Target gene": "LYRM2 (GeneID 57226)", "CDH1-null / parental viability ratio": 1, "CDH1-null viability vs mock": 0.78}
{"Target gene": "CLPX (GeneID 10845)", "CDH1-null / parental viability ratio": 1.03, "CDH1-null viability vs mock": 0.68}
{"Target gene": "ABCA3 (GeneID 21)", "CDH1-null / parental viability ratio": 0.98, "CDH1-null viability vs mock": 0.51}
{"Target gene": "NUBP2 (GeneID 10101)", "CDH1-null / parental viability ratio": 1.22, "CDH1-null viability vs mock": 0.9}
{"Target gene": "COA1 (GeneID 55744)", "CDH1-null / parental viability ratio": 0.72, "CDH1-null viability vs mock": 0.68}
{"Target gene": "TTLL11 (GeneID 158135)", "CDH1-null / parental viability ratio": 1.14, "CDH1-null viability vs mock": 0.98}
{"Target gene": "MMD (GeneID 23531)", "CDH1-null / parental viability ratio": 1.02, "CDH1-null viability vs mock": 1.06}
{"Target gene": "BCAP29 (GeneID 55973)", "CDH1-null / parental viability ratio": 1.06, "CDH1-null viability vs mock": 0.74}
{"Target gene": "C3orf62 (GeneID 375341)", "CDH1-null / parental viability ratio": 1, "CDH1-null viability vs mock": 0.8}
{"Target gene": "ART1 (GeneID 417)", "CDH1-null / parental viability ratio": 1.31, "CDH1-null viability vs mock": 0.94}
{"Target gene": "H3C11 (GeneID 8354)", "CDH1-null / parental viability ratio": 1.33, "CDH1-null viability vs mock": 1.04}
{"Target gene": "ABCC6 (GeneID 368)", "CDH1-null / parental viability ratio": 1.26, "CDH1-null viability vs mock": 0.96}
{"Target gene": "PAGR1 (GeneID 79447)", "CDH1-null / parental viability ratio": 0.81, "CDH1-null viability vs mock": 0.68}
{"Target gene": "SPRTN (GeneID 83932)", "CDH1-null / parental viability ratio": 1.38, "CDH1-null viability vs mock": 0.88}
{"Target gene": "RAB6B (GeneID 51560)", "CDH1-null / parental viability ratio": 0.95, "CDH1-null viability vs mock": 0.98}
{"Target gene": "SFRP4 (GeneID 6424)", "CDH1-null / parental viability ratio": 0.78, "CDH1-null viability vs mock": 0.61}
{"Target gene": "AGO3 (GeneID 192669)", "CDH1-null / parental viability ratio": 0.98, "CDH1-null viability vs mock": 0.97}
{"Target gene": "MAGEA5P (GeneID 4104)", "CDH1-null / parental viability ratio": 1.19, "CDH1-null viability vs mock": 0.31}
